Data as given in patent publication EP4635575A1.
These are yes or no findings as the source states them, for the method shown. Some entries that bind do so weakly or less than the wild type.

Target: T1, C4d fragment of the C4 complement protein (human) (UniProt P0C0L4)
T1 sequence (looked up): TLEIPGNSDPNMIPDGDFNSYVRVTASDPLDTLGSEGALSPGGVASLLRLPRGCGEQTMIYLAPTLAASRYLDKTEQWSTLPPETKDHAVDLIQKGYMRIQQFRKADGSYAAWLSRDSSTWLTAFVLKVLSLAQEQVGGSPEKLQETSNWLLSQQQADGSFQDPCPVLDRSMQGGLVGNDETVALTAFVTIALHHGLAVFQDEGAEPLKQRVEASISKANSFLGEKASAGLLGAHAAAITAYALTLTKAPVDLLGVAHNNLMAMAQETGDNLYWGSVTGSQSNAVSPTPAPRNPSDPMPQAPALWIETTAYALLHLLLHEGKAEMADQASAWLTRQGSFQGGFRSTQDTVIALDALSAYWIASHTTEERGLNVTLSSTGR
Test: ELISA

binding: binds
B1: anti-C4d mAb2 monoclonal antibody (antibody, human IgG1, kappa, V domains shown)
VH: QSVEESGGRLVTPGTPLTLTCTVSGFSLSSYAMGWFRQAPGKGLEWIGFINIGGRASYASWAKGRFTISKTSTTVDLKMTSPTTEDTATYFCARGRAYTLTGGTYTRAFDPWGPGTLVTVSS
VL: AQVLTQTASPVSAAVGSTVTINCQSSQKVYGNNNLAWYRQKPGQPPKVLIYAASTLASGVPSRFKGYGSGTQFTLTISDLECDDAATYYCAGAYGGDIYPFGGGTELEIKR
